Laboratory results reported in paper PMC10459988.
For at least one entry, the source does not settle the construct or the ends of the probe. For part of these data: A negative result means that nothing was seen under these conditions.

Key:
[1] = tested on: GST-GmERF105 (Glycine max (soybean) cv. Williams 82); assay: competition with a labelled probe; conditions: EMSA Kit (Beyotime), pH and temperature not stated, recombinant protein, protein details: N-terminal GST (pGEX-6P-1, printed PGX-6P-1)
[2] = tested on: GST-GmERF105 (Glycine max (soybean) cv. Williams 82); assay: EMSA; conditions: EMSA Kit (Beyotime); pH and temperature not stated; recombinant protein; protein details: N-terminal GST (pGEX-6P-1, printed PGX-6P-1)

CGCCGCCAATTGCCGCCAATAGCCGCCA / GGCGGCTATTGGCGGCAATTGGCGGCG [GCC-box cold competitor]
binding result ([1]; 1000x unlabeled competitor against labeled GCC-box (EMSA)): binds

CGCCGCCAATTGCCGCCAATAGCCGCCA / GGCGGCTATTGGCGGCAATTGGCGGCG [GCC-box probe]
binding result [2]: binds

CTCCTCCAATTTCCTCCAATATCCTCC (double strand) [mGCC-box competitor]
binding result ([1]; unlabeled mutant competitor against labeled GCC-box (EMSA)): no binding
